Data on 24 molecules can be found in PubChem BioAssay AID248 (DTP/NCI, 2004).

This experiment has as its system L1210 leukemia ip in BDF1 mice, survival T/C. The experiment in a line: NCI In Vivo Anticancer Drug Screen. Data for tumor model L1210 Leukemia (intraperitoneal) in B6D2F1 (BDF1) mice. The note with it: T/C endpoint: mean survival time, higher T/C = longer survival.
The mark [1] stands for this setting: dose: 400.0 mg/kg/injection, schedule: Q01DX001 (ip), vehicle: carboxymethylcellulose (CMC).
Where [2] appears, read: dose: 400.0 mg/kg/injection, schedule: Q04DX003 (ip), vehicle: saline with Tween-80.
[3] abbreviates: dose: 400.0 mg/kg/injection, schedule: Q04DX003 (ip), vehicle: saline.
[4] abbreviates: dose: 200.0 mg/kg/injection, schedule: Q01DX001 (ip), vehicle: saline.
Where [5] appears, read: dose: 400.0 mg/kg/injection, schedule: Q01DX001 (ip), vehicle: saline.
[6] abbreviates: dose: 50.0 mg/kg/injection, schedule: Q01DX009 (ip), vehicle: Klucel (hydroxypropylcellulose) (HPC).
The mark [7] stands for this setting: dose: 100.0 mg/kg/injection, schedule: Q01DX009 (ip), vehicle: Klucel (hydroxypropylcellulose) (HPC).
[8] abbreviates: dose: 100.0 mg/kg/injection, schedule: Q01DX001 (ip), vehicle: saline.

The structures appear in SMILES notation. The list does not hold the whole screen: it gathers tests that were run many times, whatever their T/C, doses with no T/C, and many T/C values between a quarter and a half above the control. Other doses and runs of a compound stand elsewhere. T/C gives the treated animals as a percentage of the vehicle group. Some entries give survivors of the animals treated and no T/C: the source files T/C as zero there, which appears to mark a toxic dose or a test without result, not a measured value. Some survivor counts are full or nearly so, which does not show that the dose was tolerated: survival well below the control is almost never listed, so the zero probably covers shortened survival too. Survivors were counted at the toxicity check, usually on the fifth day, unless a day is given; later deaths do not show. Schedules are NCI's codes, read here as Q, the interval in days (D) or hours (H), X, the number of doses. For survival time, the PubChem record calls one and a half times the control and up active, and a quarter to a half above the control has no call in these data; cut-offs in other NCI protocols can differ. Some entries hold several experiments; the values are given in rising order. Some schedules carry Z or #; the key to these is not given. Some T/C values are followed by the survivors on the day toxicity was checked, most often the fifth; where none is given, no animal had died by that day.

Consider `CCN(CC)CCn1cnc2cc([N+](=O)[O-])ccc21`, for which the survivor count by setting is: (dose: 80.0 mg/kg/injection, schedule: Q01DX001 (ip), vehicle: Klucel (hydroxypropylcellulose) (HPC)) 3 of 6; (dose: 100.0 mg/kg/injection, schedule: Q01DX001 (ip), vehicle: Klucel (hydroxypropylcellulose) (HPC)) 0 of 6; (dose: 200.0 mg/kg/injection, schedule: Q01DX001 (ip), vehicle: Klucel (hydroxypropylcellulose) (HPC)) 1 of 6; (dose: 400.0 mg/kg/injection, schedule: Q01DX001 (ip), vehicle: Klucel (hydroxypropylcellulose) (HPC)) 0 of 6.
For the molecule `COc1ccc(OC)c2c(=O)cc[nH]c12`, under setting [1], the survivor count is listed as 2 of 6.
Consider `O=Cc1ccc(/C=C2\NC(=O)NC2=O)cc1`, for which, for the setting “dose: 400.0 mg/kg/injection, schedule: Q01DX009 (ip), vehicle: water”, the survivor count is on record as 6 of 6.
With `O=C(O)C1C2OC(C(Br)C2Br)C1C(=O)O` (stereo unspecified), under setting [2], the survivor count is listed as 4 of 6.
As to `ClC1=C(Cl)C2(Cl)C(Cl)CC1(Cl)C2(Cl)Cl` (stereo unspecified), under setting [3], the survivor count is given as 6 of 6.
With `CCCCCCCCCCCCOC(C(=O)O)(c1ccccc1)c1ccccc1`, the survivor count is recorded as 6 of 6 (dose: 200.0 mg/kg/injection, schedule: Q04DX003 (ip), vehicle: saline with Tween-80) and 1 of 6 under setting [2].
With `CC1(C)CN1CC1CO1` (stereo unspecified), the T/C is, setting by setting: (dose: 11.0 mg/kg/injection, schedule: Q01DX Z (ip), vehicle: saline) 126 and 129 % of control; (dose: 16.0 mg/kg/injection, schedule: Q01DX Z (ip), vehicle: saline) 143 and 143 % of control [5 of 6 alive].
Turning to `Brc1ccc(Br)c(-c2nnc(-c3cccc4ccccc34)o2)c1`, the survivor count was 5 of 6 under setting [4] and 6 of 6 under setting [5].
On to `COc1ccc(OC)c(CC(Cl)(C#N)C#N)c1`, for which the survivor count reads like this: under setting [6], 6 of 6; under setting [7], 2 of 6; (dose: 100.0 mg/kg/injection, schedule: Q04DX003 (ip), vehicle: Klucel (hydroxypropylcellulose) (HPC)) 5 of 6; (dose: 200.0 mg/kg/injection, schedule: Q01DX009 (ip), vehicle: Klucel (hydroxypropylcellulose) (HPC)) 0 of 6; (dose: 400.0 mg/kg/injection, schedule: Q04DX003 (ip), vehicle: Klucel (hydroxypropylcellulose) (HPC)) 0 of 6.
For `N#CC12OC1(C#N)C(=O)C=CC2=O` (stereo unspecified), the survivor count is 0 of 3 under setting [8], 0 of 3 under setting [4] and 0 of 3 under setting [5].
As for `CC(C)OC(=O)Nc1ccncc1`, the survivor count (dose: 25.0 mg/kg/injection, schedule: Q04DX002 (ip), vehicle: saline with Tween-80) was 0 of 3.
For the molecule `CCOc1nc(N)c(C(N)=O)cc1C#N`, the survivor count (dose: 400.0 mg/kg/injection, schedule: Q04DX003 (ip), vehicle: saline sonified) is recorded as 0 of 6.
For the molecule `Cc1nnc(NN)nc1C`, the survivor count by setting is: (dose: 25.0 mg/kg/injection, schedule: Q01DX009 (ip), vehicle: saline with Tween-80) 0 of 6; (dose: 50.0 mg/kg/injection, schedule: Q01DX001 (ip), vehicle: saline with Tween-80) 2 of 6; (dose: 100.0 mg/kg/injection, schedule: Q01DX001 (ip), vehicle: saline with Tween-80) 0 of 6; (dose: 200.0 mg/kg/injection, schedule: Q01DX001 (ip), vehicle: saline with Tween-80) 0 of 6; (dose: 400.0 mg/kg/injection, schedule: Q01DX001 (ip), vehicle: saline with Tween-80) 0 of 6.
As for `CC1(C)COCN1CN1COCC1(C)C`, the survivor count under setting [3] is recorded as 1 of 6.
With `CCCCCCCCCCNC(=O)CI`, the survivor count under setting [5] is given as 0 of 4.
With `COc1cc(C=Nc2ccc(C(=O)O)c(O)c2)ccc1N(CCCl)CCCl`, the survivor count (dose: 11.0 mg/kg/injection, schedule: Q01DX009 (ip), vehicle: Klucel (hydroxypropylcellulose) (HPC)) is on record as 0 of 6; the survivor count (dose: 16.0 mg/kg/injection, schedule: Q01DX009 (ip), vehicle: Klucel (hydroxypropylcellulose) (HPC)) was 0 of 6; the survivor count (dose: 25.0 mg/kg/injection, schedule: Q01DX009 (ip), vehicle: Klucel (hydroxypropylcellulose) (HPC)) is 0 of 6; the survivor count (dose: 37.5 mg/kg/injection, schedule: Q01DX009 (ip), vehicle: Klucel (hydroxypropylcellulose) (HPC)) was 0 of 6; the survivor count (dose: 50.0 mg/kg/injection, schedule: Q01DX001 (ip), vehicle: carboxymethylcellulose (CMC)) was 0 of 4; the survivor count (dose: 100.0 mg/kg/injection, schedule: Q01DX001 (ip), vehicle: carboxymethylcellulose (CMC)) was 0 of 4. The survivor count is on record as 0 of 4 (dose: 200.0 mg/kg/injection, schedule: Q01DX001 (ip), vehicle: carboxymethylcellulose (CMC)) and 0 of 4 under setting [1]. In addition, the T/C runs as follows: (dose: 12.5 mg/kg/injection, schedule: Q01DX001 (ip), vehicle: carboxymethylcellulose (CMC)) 132 % of control; (dose: 16.0 mg/kg/injection, schedule: Q01DX001 (ip), vehicle: carboxymethylcellulose (CMC)) 127 % of control; (dose: 25.0 mg/kg/injection, schedule: Q01DX001 (ip), vehicle: carboxymethylcellulose (CMC)) 137 and 148 % of control; (dose: 37.5 mg/kg/injection, schedule: Q01DX001 (ip), vehicle: carboxymethylcellulose (CMC)) 125 % of control.
On to `Cc1nccc2c(C)c3sc4ccccc4c3cc12`, for which the survivor count (dose: 480.0 mg/kg/injection, schedule: Q01DX001 (ip), vehicle: alcohol) is given as 0 of 4.
On to `[CH3][Sb]1([Br])[CH2]CC[CH2]1`, for which the survivor count under setting [3] is 0 of 3.
Consider `O=C(Nc1ccccc1)Nc1ccc([N+](=O)[O-])cc1[N+](=O)[O-]`, for which the survivor count under setting [2] is on record as 6 of 6.
As for `O=S(=O)(NC1CCc2ccccc21)c1ccccc1` (stereo unspecified), the survivor count (dose: 400.0 mg/kg/injection, schedule: Q01DX009 (ip), vehicle: saline with Tween-80) is recorded as 6 of 6.
`O=Nc1c(O)ccc2ccccc12`: the survivor count runs as follows: under setting [6], 6 of 6; under setting [8], 2 of 4; under setting [7], 1 of 6; under setting [4], 0 of 4; under setting [5], 0 of 4.
Turning to `O=C(/C=C\C=C\c1ccccc1)c1ccc([N+](=O)[O-])cc1`, the survivor count (dose: 200.0 mg/kg/injection, schedule: Q01DX009 (ip), vehicle: carboxymethylcellulose (CMC)) is listed as 3 of 3.
Consider `Cc1cc2cc3cccnn3c2nn1`, for which the survivor count runs as follows: (dose: 200.0 mg/kg/injection, schedule: Q04DX002 (ip), vehicle: Klucel (hydroxypropylcellulose) (HPC)) 0 of 3; (dose: 400.0 mg/kg/injection, schedule: Q04DX002 (ip), vehicle: Klucel (hydroxypropylcellulose) (HPC)) 0 of 3.
Consider `CC(=O)ON1C(=O)c2ccccc2C1=O`, for which, under setting [5], the survivor count is given as 1 of 4.
